# System: NIH/3T3 cells
# Assay: FACS-based flow cytometric analysis of probe uptake with/without 11 mM D-glucose
# Format: cell-based, murine
# Protocol: FACS (Fluorescence Activated Cell Sorting)-based flow cytometric analysis was used to compare cellular uptake efficiency in NIH/3T3 cells among the glucose probe [2-(N-Cy3-piperazinoethyl)]-α-D-glucose (GB2-Cy3), synthesized in Example 2, the conventional fluorescent glucose probe 2-NBDG and the glucose probe Cy3-Glc-α, synthesized in Example 1.
# NIH/3T3 cells were cultured on 10 cm cell culture dishes and transferred in a volume of 3×10^5 cells into each FACS tube (5 mL, BD). They were washed once with cold PBS before incubation at 37° C. for 30 min in 11 mM D-glucose-containing PBS or glucose-free PBS in the presence of the bioprobe [GB2-Cy3 (5 μM), 2-NBDG (5 μM or 50 μM) or Cy3-Glc-α (5 μM)]. Cells that were incubated without the bioprobes were used as a negative control. After being washed with cold PBS, 1×10^4 NIH/3T3 cells were analyzed on FACSCalibur™ (FACS-based flow cytometer). GBs-Cy3 was detected by FL2 channels. Raw data of 1×10^4 cells are shown in histograms, with the mean values thereof given in the graph of FIG. 21.
smiles,measurement,value
"C[N+]1=C(/C=C/C=C2/N(CCCCC(=O)N3CCN(CCOC4OC(CO)C(O)C(O)C4O)CC3)c3ccccc3C2(C)C)C(C)(C)c2ccccc21 [GB2-Cy3, [2-(N-Cy3-piperazinoethyl)]-α-D-glucose]",concentration at which probe competes with D-glucose for cellular uptake,5 µM
